From patent US20180346592A1
Results are given in words; binding and its absence hold for the method and conditions named. Some binding calls cover weakened binding; strength is not graded here.

Chains of the proteins cited; added tags and fusions are not shown. Lines headed by an entry give the natural chain unless they say otherwise; changes in a name come on top.
UniProt P51654: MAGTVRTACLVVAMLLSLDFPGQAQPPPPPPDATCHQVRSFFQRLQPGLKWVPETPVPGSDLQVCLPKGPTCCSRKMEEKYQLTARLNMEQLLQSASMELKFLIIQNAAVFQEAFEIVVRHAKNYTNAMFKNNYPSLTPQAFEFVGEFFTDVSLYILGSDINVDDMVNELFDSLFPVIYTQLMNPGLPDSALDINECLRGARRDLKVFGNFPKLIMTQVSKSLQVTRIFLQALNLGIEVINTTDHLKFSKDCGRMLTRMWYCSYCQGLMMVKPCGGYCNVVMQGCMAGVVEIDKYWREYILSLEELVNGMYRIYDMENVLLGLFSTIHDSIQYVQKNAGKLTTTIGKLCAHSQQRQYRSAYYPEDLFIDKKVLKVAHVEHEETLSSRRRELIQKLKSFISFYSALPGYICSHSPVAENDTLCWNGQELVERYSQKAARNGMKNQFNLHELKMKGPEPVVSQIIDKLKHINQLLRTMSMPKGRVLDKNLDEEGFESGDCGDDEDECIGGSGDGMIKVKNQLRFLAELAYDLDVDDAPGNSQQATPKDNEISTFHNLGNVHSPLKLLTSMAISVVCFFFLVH

The binders below were run against human GPC3 (GPC3 antigen coated for panning and ELISA) (human) (UniProt P51654) (assay: ELISA, clone culture supernatant on GPC3-coated plate).

Row | binding | Binder
1 | binds | clone GX214 (scFv, V domains shown) VH: EVQLVESGGGLVKPGGSLRLSCAASGFTFSDYYMSWIRQAPGKGLEWVSYISSSGSTIYYADSVKGRFTISRDNAKNSLYLQMNSLRVDDTAVYYCATLYDFWSQGTLVTVSS VL: NIQMTQSPSSLSASVGDRVTITCQASQDITNFLNWHQQKPGKAPELLIYDASNLETGVPSRFSGSGSGTDFTFTISSLQPEDVGTYYCQQYDNLPLTFGGGTKVEIKR
2 | binds | clone GX242 (scFv, V domains shown) VH: QVQLVESGGGLVKPGGSLRLSCAASGFTFSDYYMSWIRQAPGKGLEWVSYISSSGSTIYYADSVKGRFTISRDNAKNSLYLQMNSLRAEDTAVYYCARVVAAREDYWGQGTLVTVSS VL: EIVLTQSPATLSLSPGERATLSCRATQSVGSYLAWYQQKPGQAPRLLIYDAFNRATGIPDRFSGSGSGTDFTLTISSLEPEDFAVYYCQQRSNWPLTFGGGTKVEIKR
3 | binds | clone GX099 (scFv, V domains shown) VH: EVQLVESGAEVKKPGASVKVSCKASGYTFTSYYMHWVRQAPGQGLEWMGIINPSGGSTSYAQKFQGRVTMTRDTSTSTVYMELSSLRSEDTAVYYCARYSSSPAKIDYWGQGTLVTVSS VL: QSVLTQPPSVSAAPGEKVIISCSGSSSNIGKYYVSWYQQLPGTAPKLLIYDNNKRPSGIPDRFSGSKSGTSATLGISGLQTGDEADYYCGTWDSSLNLVFGTGTKVTVLG
4 | binds | clone GX234 (scFv, V domains shown) VH: QVQLVQSGAEVKKPGASVKVSCKASGYTFTSYGISWVRQAPGQGLEWMGWISAYNGNTNYAQKLQGRVTMTTDTSTSTAYMELRSLRSDDTAVYYCARVGLGDFWSGDYYYYYYGMDVWGQGTTVTVSS VL: SSELTQDPAVSVALGQTVRITCQGDSLRSSYASWYHQKPGQAPVLVMYGKNNRPSGIPDRFSGSSSGNTASLTITGAQAEDEADYYCHSRDSTGSHPNWVFGGGTKLTVLG
5 | binds | clone GX213 (scFv, V domains shown) VH: QLQLQESGPGLVKPSETLSLTCTVSGGSISSSSYYWGWIRQPPGKGLEWIGSIYYSGSTYYNPSLKSRVTISVDTSKNQFSLKLSSVTAADTAVYYCARLFWQQLTFDYWGQGTLVTVSS VL: QSVVTQPPSVSAAPGQRVSISCSGSSSNIGKNHVIWHQQFPGTAPKLLISENNKRPSGIPDRFSASKSGTSATLDITGLQTGDEADYYCGTWDNSLSAGVFGGGTKLTVLG
6 | binds | clone GX224 (scFv, V domains shown) VH: QVQLVQSGAEVKKPGASVKVSCKASGYTFTSYYMHWVRQAPGQGLEWMGIINPSGGSTSYAQKFQGRVTMTRDTSTSTVYMELSSLRSEDTAVYYCARSRPRSSSFDYWGRGTLVTVSS VL: NFMLTQPHSVSESPGKTVTISCTVSSGSIAKNYVHWYQRRPGSAPTPLIYEDNRRPSGVPDRFSGSIDSSSNSASLTISGLKTEDEADYYCQSYDDSGDRFVFGTGTKVTVLG
7 | binds | clone GX225 (scFv, V domains shown) VH: QVQLVQSGAEVKKPGASVKVSCKASGYTFTSYYMHWVRQAPGQGLEWMGIINPSGGSTSYAQKFQGRVTMTRDTSTSTVYMELSSLRSEDTAVYYCARESGPSGGMDVWGQGTTVTVSS VL: SYELTQPPSVSVSPGQTARITCSGDALPKQYAYWYQQKPGQAPVLVIYKDSERPSGIPERFSGSSSGTTVTLTISGVQAEDEADYYCSSYTSSSTRVVFGGGTKLTVLG
8 | binds | clone GX221 (scFv, V domains shown) VH: QLQLQESGPGLVKPSETLSLTCAVSGGSISSSNNYWGWIRQPPGKGLEWIGSIFYSGSTYYNPSLKSRVTISVDTSKNQFSLKLSSVTAADTAVYYCARLPTGTPGFYFDYWGQGTLVTVSS VL: SYVLTQPPSVSKDLRQTATLTCTGNSSNVGNQGAAWVQQHQGHPPKLLSYRNNKRPSGISERLSASRSGNTASLTITGLQPEDEADYYCSAWDSSLSAWVFGGGTKLTVLG
